{"source": "ChEMBL document CHEMBL3097987", "about": "“Pyrrolizines: Promising scaffolds for anticancer drugs” (Bioorg Med Chem, 2014)", "molecular_target": "T1, Aromatase (Homo sapiens, UniProt P11511)", "T1 sequence (P11511 whole entry)": "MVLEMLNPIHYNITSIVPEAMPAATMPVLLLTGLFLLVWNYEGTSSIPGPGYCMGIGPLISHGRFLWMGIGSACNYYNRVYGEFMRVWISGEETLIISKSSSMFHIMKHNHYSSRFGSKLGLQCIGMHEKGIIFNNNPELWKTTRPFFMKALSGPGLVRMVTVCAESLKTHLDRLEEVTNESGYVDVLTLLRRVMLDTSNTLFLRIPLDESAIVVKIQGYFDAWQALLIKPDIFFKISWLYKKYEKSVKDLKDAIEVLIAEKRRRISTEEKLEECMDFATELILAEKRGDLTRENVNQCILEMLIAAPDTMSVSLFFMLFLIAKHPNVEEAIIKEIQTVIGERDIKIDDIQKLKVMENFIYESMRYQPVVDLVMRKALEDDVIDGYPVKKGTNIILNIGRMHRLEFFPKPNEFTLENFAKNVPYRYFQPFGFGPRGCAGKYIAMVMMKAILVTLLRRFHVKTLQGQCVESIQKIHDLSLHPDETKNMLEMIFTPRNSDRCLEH", "assay": "Inhibition of aromatase (unknown origin)", "data": [{"molecule": "O=C1/C(=C\\c2cccnc2)C(c2ccc(OC(F)(F)F)cc2)n2cccc21", "note": "(stereo unspecified)", "values": [{"measurement": "IC50", "result": 1600, "unit": "nM"}]}]}
